# These are yes or no findings as the source states them, for the method shown. In cells and extracts the contact can be indirect. Some results given as binding are weak or reduced against the parent protein; the word gives no strength.
# The chains behind the UniProt entries cited, without tags or fusion partners.
# UniProt O43765: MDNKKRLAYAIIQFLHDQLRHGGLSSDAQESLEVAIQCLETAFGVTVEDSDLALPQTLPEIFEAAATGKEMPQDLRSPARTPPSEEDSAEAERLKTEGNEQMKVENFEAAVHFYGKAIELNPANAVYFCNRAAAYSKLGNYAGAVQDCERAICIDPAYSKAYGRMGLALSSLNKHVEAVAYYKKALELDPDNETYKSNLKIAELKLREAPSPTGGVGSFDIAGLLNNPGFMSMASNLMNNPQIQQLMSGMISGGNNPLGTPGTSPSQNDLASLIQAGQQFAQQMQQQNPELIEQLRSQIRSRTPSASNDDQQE
# UniProt P46379: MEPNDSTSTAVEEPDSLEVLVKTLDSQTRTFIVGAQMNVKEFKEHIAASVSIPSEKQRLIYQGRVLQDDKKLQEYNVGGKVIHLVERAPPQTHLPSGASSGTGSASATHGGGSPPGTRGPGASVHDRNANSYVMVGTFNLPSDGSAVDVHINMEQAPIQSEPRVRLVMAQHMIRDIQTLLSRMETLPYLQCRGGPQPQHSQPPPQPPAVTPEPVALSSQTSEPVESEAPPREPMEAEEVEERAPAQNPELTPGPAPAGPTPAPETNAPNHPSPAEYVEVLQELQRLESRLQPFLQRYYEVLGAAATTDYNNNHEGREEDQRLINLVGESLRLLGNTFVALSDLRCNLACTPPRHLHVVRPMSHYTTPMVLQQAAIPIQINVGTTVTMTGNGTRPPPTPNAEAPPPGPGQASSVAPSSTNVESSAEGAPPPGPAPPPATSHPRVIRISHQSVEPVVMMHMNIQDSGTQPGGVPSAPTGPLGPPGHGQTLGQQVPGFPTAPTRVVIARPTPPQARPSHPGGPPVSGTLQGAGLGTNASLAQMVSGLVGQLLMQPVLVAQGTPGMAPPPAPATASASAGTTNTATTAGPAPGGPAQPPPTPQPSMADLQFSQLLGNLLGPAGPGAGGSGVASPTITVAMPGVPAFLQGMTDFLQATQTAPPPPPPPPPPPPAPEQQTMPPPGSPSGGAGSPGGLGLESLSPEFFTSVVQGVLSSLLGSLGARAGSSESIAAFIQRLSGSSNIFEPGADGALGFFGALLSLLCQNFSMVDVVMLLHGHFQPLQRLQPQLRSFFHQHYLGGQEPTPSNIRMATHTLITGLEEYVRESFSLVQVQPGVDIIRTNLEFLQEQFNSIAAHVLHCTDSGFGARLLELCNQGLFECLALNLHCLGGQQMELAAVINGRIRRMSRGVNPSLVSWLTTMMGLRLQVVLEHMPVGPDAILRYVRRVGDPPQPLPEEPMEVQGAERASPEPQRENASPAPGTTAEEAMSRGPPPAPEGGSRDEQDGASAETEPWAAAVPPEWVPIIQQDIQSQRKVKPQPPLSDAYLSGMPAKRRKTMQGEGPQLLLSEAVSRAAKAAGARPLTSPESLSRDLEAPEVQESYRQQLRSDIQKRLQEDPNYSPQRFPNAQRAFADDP
# B1: OPG–TASK85 (domain or fragment, UniProt O14649 2-60)
# chain: KRQNVRTLALIVVTFTYLLVGAAVFDALESEPELIERQRLELRQQELRARYNLSQGGYE
# B2: OPG–TASK85 (in-vitro-synthesised) (domain or fragment, UniProt O14649 2-60)
# chain: B1 chain
# modifications: 35S-methionine/cysteine label
# Assays:
# [1] = molecular target: SGTA–V5 (UniProt O43765); assay: co-IP; HeLaM cells co-transfected with the OPG–TASK85 variant and BAG6–V5 or SGTA–V5; 24 h later 1 mM DSP (cleavable cross-linker) or DMSO for 15 min at room temperature, quenched with 10 mM glycine; lysis in 10 mM Tris-HCl pH 7.4, 150 mM NaCl, 1 mM EDTA, 0.5% DDM; IP with anti-V5 or anti-opsin and Protein-A–Sepharose; western blot
# [2] = molecular target: BAG6–V5 (UniProt P46379); assay: as above
# [3] = molecular target: HisTrx–SGTA (UniProt O43765); assay: pull-down; OPG–TASK85 variant translated in reticulocyte lysate with 35S-methionine/cysteine in the presence of 2 µM HisTrx–SGTA or HisTrx; puromycin; Ni-NTA agarose in 50 mM HEPES-KOH pH 7.5, 300 mM NaCl, 50 mM imidazole, 10% glycerol, 2 h at 4°C; elution with 500 mM imidazole; phosphorimaging; only the target purified
Binder,binding [1],binding [2],binding [3]
B1,binds,binds,
B2,,,binds

# Reference: publication PMC4215715
